# Source: PubChem BioAssay AID540275 (National Center for Advancing Translational Sciences (NCATS), 2011)
# Chains of the proteins cited; added tags and fusions are not shown.
# UniProt Q8NER1, whole entry, looked up: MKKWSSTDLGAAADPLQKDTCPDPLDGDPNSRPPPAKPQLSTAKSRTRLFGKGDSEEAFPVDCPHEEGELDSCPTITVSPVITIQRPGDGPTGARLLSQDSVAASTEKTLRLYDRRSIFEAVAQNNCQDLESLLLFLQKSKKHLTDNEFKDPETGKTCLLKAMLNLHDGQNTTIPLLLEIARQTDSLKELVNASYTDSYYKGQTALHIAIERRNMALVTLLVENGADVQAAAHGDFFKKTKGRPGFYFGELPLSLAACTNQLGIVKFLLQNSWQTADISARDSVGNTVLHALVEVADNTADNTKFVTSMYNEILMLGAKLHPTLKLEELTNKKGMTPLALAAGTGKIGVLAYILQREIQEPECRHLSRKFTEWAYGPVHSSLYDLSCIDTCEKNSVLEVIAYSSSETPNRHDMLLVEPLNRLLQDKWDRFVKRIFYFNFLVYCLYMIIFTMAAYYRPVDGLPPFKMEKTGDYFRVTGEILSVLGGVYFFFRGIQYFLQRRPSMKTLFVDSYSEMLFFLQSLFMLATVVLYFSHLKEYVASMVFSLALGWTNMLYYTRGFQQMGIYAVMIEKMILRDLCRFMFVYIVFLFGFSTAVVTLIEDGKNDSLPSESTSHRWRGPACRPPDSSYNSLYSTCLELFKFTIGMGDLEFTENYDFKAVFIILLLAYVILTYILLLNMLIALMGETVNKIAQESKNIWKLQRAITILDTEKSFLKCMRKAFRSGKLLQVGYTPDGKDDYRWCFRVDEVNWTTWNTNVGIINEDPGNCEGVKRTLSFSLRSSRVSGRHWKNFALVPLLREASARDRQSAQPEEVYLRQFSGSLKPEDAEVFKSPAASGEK
# Values joined by “and” are separate entries in the source; they are usually repeats but may differ in a detail not shown here. Identical values can stand only once. Among all 320,000 compounds or so, about 620 (0.19%) were called active. The inconclusive results got no clear call from the source; some entries with a clear call stand among them for comparison. Rule as the data show it: active = activation above about 80%; inconclusive = between about 30% and that limit; inactive = weaker than that.
# Biological target: Transient receptor potential cation channel subfamily V member 1 (Homo sapiens) (UniProt Q8NER1)
# Assay: HTS Assay for Compounds that Act as Agonists of the Vanilloid Receptor 1; also: 0% is about no effect
# Details: TRPV1-expressing cells, Fluo-8 calcium influx, agonist mode; at 8.33 µM, active compounds read high
# Procedure, shortened: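 Cells expressing TRPV1 were dye-loaded with Fluo-8 and read kinetically: 10 s baseline, 3 min after compound (agonist portion), then 2 min after EC20 capsaicin (allosteric enhancer portion). Calcium-bound dye fluorescence at 480/520 nm.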
row,SMILES,activation
1,CNc1snc(C)c1C(=O)OC(C)C(=O)c1ccc(F)cc1 (configuration not stated),inconclusive: 38%
2,CCOc1cc(N2CCOCC2)c(OCC)cc1NC(=O)C1=NN(c2cccc(C)c2)C(=O)CC1,inconclusive: 30.7%
3,O=C(/C=C/c1cccs1)Nc1ccncc1,inconclusive: 72.8%
4,CCOc1ccc(/C=C/C2=Cc3c(sc(NC(=O)CSc4n[nH]c(N)n4)c3C#N)C(C)(C)C2)cc1,inactive: -0.0638%
5,CCC(=O)N1CCN(c2nc(-c3ccccc3)c3c(c2C#N)CCCC3)CC1,active: 102%
6,O=C(Nc1ccc(F)c(F)c1)c1ccco1,inconclusive: 51%
7,Cc1ccc(Nc2c(-c3ccccn3)nc3cc(C)ccn23)cc1,inconclusive: 35%
8,FC(F)(F)c1ccc(NC(=S)NCc2ccccc2)cc1,inconclusive: 56.3%
9,CCCn1c(=O)n(N)c2ccccc21,inactive: -0.355%
10,CCOc1ccccc1NC(=O)c1sc2nc(C)nc(N3CCOCC3)c2c1C,inconclusive: 42.5%
11,O=C(Nc1ccccc1)OCCOc1ccccc1,inconclusive: 32.4%
12,Cc1cc(-c2ccc(C(C)C)c(S(=O)(=O)N3CCN(c4ccccn4)CC3)c2)on1,inconclusive: 51.1%
13,COc1ccc(CNC(=O)C[C@H]2C(=O)N(Cc3ccccc3)C[C@@H]2Cc2ccccc2)cc1,inconclusive: 35.3%
14,CC(C)Cn1c(SCC(=O)NCc2ccco2)nnc1-c1ccncc1,inactive: -1.55%
15,O=S(=O)(Cc1cc(-c2ccccc2Cl)no1)c1ccccc1,inconclusive: 48%
16,CCCNC(=S)N1CCC(C(=O)c2ccc(Cl)cc2)CC1,inconclusive: 43.3%
17,C=CCn1c(SCC(=O)N2CCOCC2)nc2sc3c(c2c1=O)CCCC3,inconclusive: 70.5%
18,CCCc1cc(C(=O)Nc2ccc(C(=O)OC)cc2)cs1,inconclusive: 39.4%
19,O=C(NC12CC3CC(CC(C3)C1)C2)N1CCN(C(=O)c2ccco2)CC1,inconclusive: 42.6%

row,SMILES,activation
1,COc1ccc(NC2CCCN(C(=O)C3(C)CCCCC3)C2)cc1 (configuration not stated),inconclusive: 55%
2,Cc1ccc(/C=N/n2cc(-c3ccccc3)[nH]c2=S)s1,inconclusive: 42.7%
3,O=C(O)c1ccccc1C(=O)Nc1cc(C(F)(F)F)ccc1N1CCCC1,inconclusive: 42.5%
4,COc1ccccc1OCC(=O)Nc1oc(-c2ccccc2)c(-c2ccccc2)c1C#N,inactive: 7.03%
5,Cc1c(C(=O)Nc2ccc(F)cc2)oc2ccc(S(=O)(=O)N3CCCC3)cc12,inconclusive: 34.4%
6,Cc1nnc(N2CCOCC2)c2nn(-c3ccccc3)c(C)c12,inconclusive: 32%
7,CC(C)c1ccc(NC(=S)NC2CCCCCC2)cc1,inconclusive: 70.4%
8,CN(c1ccc(C(=O)Nc2cccc(O)c2)cc1)S(=O)(=O)c1ccccc1,inconclusive: 59%
9,CC(C)OC(=O)Nc1ccc(Oc2c(F)c(F)c(F)c(F)c2F)cc1,inconclusive: 36.3%
10,O=C(N/N=C/C(Cl)=C/c1ccccc1)c1ccncc1,inconclusive: 52.7%
11,Cn1nc(C(F)(F)F)c2cc(C(=O)Nc3ccc(F)cc3)sc21,inconclusive: 32.9%
12,CN(C)CCN(Cc1ccccc1)c1ccccn1,inactive: -3.9% and inactive: 2.25%
13,CCOC(=O)CSc1ccc(-c2nc3cc(C)c(C)cc3[nH]2)cn1,inconclusive: 44.7%
14,O=C(NC(=S)NC1CCCc2ccccc21)c1ccc(F)cc1 (configuration not stated),inconclusive: 63.4%
15,CCc1cccc(NC(=O)C2CC2c2ccccc2)c1 (configuration not stated),inconclusive: 57.7%
16,CSc1cc(C)c(OCC(=O)Nc2c(C)nn(C)c2C)c(C)c1,inconclusive: 40.7%
17,CCc1ccc2[nH]c(=O)c(CN(Cc3ccccc3OC)C(=O)Nc3ccccc3OC)cc2c1,inactive: 4.92%
18,O=C(Nc1ccc(N2CCOCC2)c(Cl)c1)c1ccc(Cl)cc1,inconclusive: 62%
19,N#Cc1cc(Cl)c(N2CCOCC2)cc1C#N,inactive: -1.69%

row,SMILES,activation
1,CC(=O)c1ccc(NC(=O)NC2CCCc3ccccc32)cc1 (configuration not stated),inconclusive: 54.1%
2,COc1cccc(CC2(CO)CCCN(Cc3c(C)cc(C)cc3-n3cccn3)C2)c1 (configuration not stated),inactive: -0.478%
3,C=CCOC(=O)C1=C[C@@H](c2ccc3c(c2)OCO3)C[C@@H](OCc2ccc(CO)cc2)O1,inconclusive: 65.1%
4,O=C(NCc1ccco1)c1cccc(S(=O)(=O)N2CCCCC2)c1,inactive: 1.57%
5,CCOc1ccccc1-c1cc(C(=O)N/N=C(\C)c2cccnc2)c2ccccc2n1,inconclusive: 44.8%
6,COc1ccccc1/C=C1\SC(=S)N(CCC(=O)Nc2cccc(O)c2)C1=O,inconclusive: 39%
7,CC(C)c1ccc(COc2ccc(C(=O)N3CCOCC3)cc2)cc1,inconclusive: 61.2%
8,CC(C)CCN1C(=O)c2ccc(C(=O)Nc3cccc(S(N)(=O)=O)c3)cc2C1=O,inconclusive: 56.8%
9,C#CCNC(=O)C1CCN(c2ccc(S(=O)(=O)N3CCOCC3)cc2Cl)CC1,active: 82.1%
10,CCc1nccn1CCC(=O)N1CCCC(Nc2ccc(C(C)C)cc2)C1 (configuration not stated),inconclusive: 61.9%
11,CCc1ccc(NC(=O)c2sc3nc4n(c(=O)c3c2C)CCC4)cc1,inactive: -1.84%
12,O=C(NCCCn1ccnc1)c1ccccc1Br,inactive: -0.276%
13,CN1CCN(C(=O)C2=C[C@@H](c3ccc(C(F)(F)F)cc3)C[C@@H](OCCCCO)O2)CC1,inconclusive: 33%
14,COc1cc2c3c(c1)c(N=NC(N)=S)c(O)n3C(C)(C)C=C2C,inconclusive: 36.2%
15,O=C1CCN(S(=O)(=O)c2ccccc2)CCN1CCOCc1ccc(Cl)cc1,inactive: 6.46%
16,O=C(Nc1ccc2c(c1)C(=O)NC2=O)c1ccc(S(=O)(=O)N2CCCC2)cc1,inconclusive: 56.1%
17,O=C(Nc1ccn(Cc2ccc(Cl)cc2)n1)c1ccc2c(c1)OCO2,inconclusive: 34.6%
18,CCN(C(=O)c1ccccc1)c1ccc([N+](=O)[O-])cc1,inactive: -3.15%
19,CN1C(=O)/C(=C/c2ccccc2Cl)Sc2ccc(C(=O)NCc3cccnc3)cc21,inconclusive: 38.6%
